Paper PMC7239059
Results are given in words; binding and its absence hold for the method and conditions named. Binding seen in cells or lysates may run through a third protein. Here binding means that the protein was enriched with, or labelled near, the bait; the list need not be complete.

By UniProt entry, the sequences of proteins in these tests, tags left out.
UniProt P0DTC3: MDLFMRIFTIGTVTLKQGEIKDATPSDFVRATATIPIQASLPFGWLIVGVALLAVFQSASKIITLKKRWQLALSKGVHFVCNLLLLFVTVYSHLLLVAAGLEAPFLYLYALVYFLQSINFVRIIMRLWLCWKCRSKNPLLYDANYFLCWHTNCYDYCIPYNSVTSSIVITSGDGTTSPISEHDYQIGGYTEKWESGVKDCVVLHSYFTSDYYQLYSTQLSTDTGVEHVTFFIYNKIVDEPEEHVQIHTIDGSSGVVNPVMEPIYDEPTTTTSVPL
UniProt P0DTD2: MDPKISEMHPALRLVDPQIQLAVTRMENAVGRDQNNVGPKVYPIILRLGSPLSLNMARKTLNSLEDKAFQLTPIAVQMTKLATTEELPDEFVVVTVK
UniProt P0DTD3: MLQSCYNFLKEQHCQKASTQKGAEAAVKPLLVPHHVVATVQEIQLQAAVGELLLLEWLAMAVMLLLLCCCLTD

What was measured:
Experiment in all cases: affinity purification with mass spectrometry
[1] = biological target: SARS-CoV-2 Orf3a (SARS-CoV-2) (UniProt P0DTC3)
[2] = biological target: SARS-CoV-2 Orf9b (SARS-CoV-2) (UniProt P0DTD2)
[3] = biological target: SARS-CoV-2 Nsp15 (SARS-CoV-2), P0DTD1; conditions: remark: other sources report otherwise
[4] = biological target: SARS-CoV-2 Nsp14 (SARS-CoV-2) (UniProt P0DTD1)
[5] = biological target: SARS-CoV-2 Orf9c (SARS-CoV-2) (UniProt P0DTD3)

B1: TRIM59 (protein, UniProt Q8IWR1 1-403)
chain: MHNFEEELTCPICYSIFEDPRVLPCSHTFCRNCLENILQASGNFYIWRPLRIPLKCPNCRSITEIAPTGIESLPVNFALRAIIEKYQQEDHPDIVTCPEHYRQPLNVYCLLDKKLVCGHCLTIGQHHGHPIDDLQSAYLKEKDTPQKLLEQLTDTHWTDLTHLIEKLKEQKSHSEKMIQGDKEAVLQYFKELNDTLEQKKKSFLTALCDVGNLINQEYTPQIERMKEIREQQLELMALTISLQEESPLKFLEKVDDVRQHVQILKQRPLPEVQPVEIYPRVSKILKEEWSRTEIGQIKNVLIPKMKISPKRMSCSWPGKDEKEVEFLKILNIVVVTLISVILMSILFFNQHIITFLSEITLIWFSEASLSVYQSLSNSLHKVKNILCHIFYLLKEFVWKIVSH
[1]
  binding: binds

B2: DCTPP1 (protein, UniProt Q9H773 1-170)
chain: MSVAGGEIRGDTGGEDTAAPGRFSFSPEPTLEDIRRLHAEFAAERDWEQFHQPRNLLLALVGEVGELAELFQWKTDGEPGPQGWSPRERAALQEELSDVLIYLVALAARCRVDLPLAVLSKMDINRRRYPAHLARSSSRKYTELPHGAISEDQAVGPADIPCDSTGQTST
[2]
  binding: binds

B3: RNF41/Nrdp1, Q9H4P4 1-317 (protein)
chain: MGYDVTRFQGDVDEDLICPICSGVLEEPVQAPHCEHAFCNACITQWFSQQQTCPVDRSVVTVAHLRPVPRIMRNMLSKLQIACDNAVFGCSAVVRLDNLMSHLSDCEHNPKRPVTCEQGCGLEMPKDELPNHNCIKHLRSVVQQQQTRIAELEKTSAEHKHQLAEQKRDIQLLKAYMRAIRSVNPNLQNLEETIEYNEILEWVNSLQPARVTRWGGMISTPDAVLQAVIKRSLVESGCPASIVNELIENAHERSWPQGLATLETRQMNRRYYENYVAKRIPGKQAVVVMACENQHMGDDMVQEPGLVMIFAHGVEEI
[3]
  binding: binds

B4: GLA (protein, UniProt P06280 32-429)
chain: LDNGLARTPTMGWLHWERFMCNLDCQEEPDSCISEKLFMEMAELMVSEGWKDAGYEYLCIDDCWMAPQRDSEGRLQADPQRFPHGIRQLANYVHSKGLKLGIYADVGNKTCAGFPGSFGYYDIDAQTFADWGVDLLKFDGCYCDSLENLADGYKHMSLALNRTGRSIVYSCEWPLYMWPFQKPNYTEIRQYCNHWRNFADIDDSWKSIKSILDWTSFNQERIVDVAGPGGWNDPDMLVIGNFGLSWNQQVTQMALWAIMAAPLFMSNDLRHISPQAKALLQDKDVIAINQDPLGKQGYQLRQGDNFEVWERPLSGLAWAVAMINRQEIGGPRSYTIAVASLGKGVACNPACFITQLLPVKRKLGFYEWTSRLRSHINPTGTVLLQLENTMQMSLKDLL
[4]
  binding: binds

B5: NDFIP2 (protein, UniProt Q9NV92 1-336)
chain: MARRRSQRVCASGPSMLNSARGAPELLRGTATNAEVSAAAAGATGSEELPPGDRGCRNGGGRGPAATTSSTGVAVGAEHGEDSLSRKPDPEPGRMDHHQPGTGRYQVLLNEEDNSESSAIEQPPTSNPAPQIVQAASSAPALETDSSPPPYSSITVEVPTTSDTEVYGEFYPVPPPYSVATSLPTYDEAEKAKAAAMAAAAAETSQRIQEEECPPRDDFSDADQLRVGNDGIFMLAFFMAFIFNWLGFCLSFCITNTIAGRYGAICGFGLSLIKWILIVRFSDYFTGYFNGQYWLWWIFLVLGLLLFFRGFVNYLKVRNMSESMAAAHRTRYFFLL
[5]
  binding: binds
